# Source: the supplement of paper PMC12819154, “High-throughput peptide-centric local stability assay extends protein–ligand identification to membrane proteins, tissues and bacteria” (Nature Structural & Molecular Biology, 2025)
# The chains behind the UniProt entries cited, without tags or fusion partners. Where a name states a change or a piece, a line headed by the entry shows the natural chain unless it says otherwise.
# UniProt Q09XV5: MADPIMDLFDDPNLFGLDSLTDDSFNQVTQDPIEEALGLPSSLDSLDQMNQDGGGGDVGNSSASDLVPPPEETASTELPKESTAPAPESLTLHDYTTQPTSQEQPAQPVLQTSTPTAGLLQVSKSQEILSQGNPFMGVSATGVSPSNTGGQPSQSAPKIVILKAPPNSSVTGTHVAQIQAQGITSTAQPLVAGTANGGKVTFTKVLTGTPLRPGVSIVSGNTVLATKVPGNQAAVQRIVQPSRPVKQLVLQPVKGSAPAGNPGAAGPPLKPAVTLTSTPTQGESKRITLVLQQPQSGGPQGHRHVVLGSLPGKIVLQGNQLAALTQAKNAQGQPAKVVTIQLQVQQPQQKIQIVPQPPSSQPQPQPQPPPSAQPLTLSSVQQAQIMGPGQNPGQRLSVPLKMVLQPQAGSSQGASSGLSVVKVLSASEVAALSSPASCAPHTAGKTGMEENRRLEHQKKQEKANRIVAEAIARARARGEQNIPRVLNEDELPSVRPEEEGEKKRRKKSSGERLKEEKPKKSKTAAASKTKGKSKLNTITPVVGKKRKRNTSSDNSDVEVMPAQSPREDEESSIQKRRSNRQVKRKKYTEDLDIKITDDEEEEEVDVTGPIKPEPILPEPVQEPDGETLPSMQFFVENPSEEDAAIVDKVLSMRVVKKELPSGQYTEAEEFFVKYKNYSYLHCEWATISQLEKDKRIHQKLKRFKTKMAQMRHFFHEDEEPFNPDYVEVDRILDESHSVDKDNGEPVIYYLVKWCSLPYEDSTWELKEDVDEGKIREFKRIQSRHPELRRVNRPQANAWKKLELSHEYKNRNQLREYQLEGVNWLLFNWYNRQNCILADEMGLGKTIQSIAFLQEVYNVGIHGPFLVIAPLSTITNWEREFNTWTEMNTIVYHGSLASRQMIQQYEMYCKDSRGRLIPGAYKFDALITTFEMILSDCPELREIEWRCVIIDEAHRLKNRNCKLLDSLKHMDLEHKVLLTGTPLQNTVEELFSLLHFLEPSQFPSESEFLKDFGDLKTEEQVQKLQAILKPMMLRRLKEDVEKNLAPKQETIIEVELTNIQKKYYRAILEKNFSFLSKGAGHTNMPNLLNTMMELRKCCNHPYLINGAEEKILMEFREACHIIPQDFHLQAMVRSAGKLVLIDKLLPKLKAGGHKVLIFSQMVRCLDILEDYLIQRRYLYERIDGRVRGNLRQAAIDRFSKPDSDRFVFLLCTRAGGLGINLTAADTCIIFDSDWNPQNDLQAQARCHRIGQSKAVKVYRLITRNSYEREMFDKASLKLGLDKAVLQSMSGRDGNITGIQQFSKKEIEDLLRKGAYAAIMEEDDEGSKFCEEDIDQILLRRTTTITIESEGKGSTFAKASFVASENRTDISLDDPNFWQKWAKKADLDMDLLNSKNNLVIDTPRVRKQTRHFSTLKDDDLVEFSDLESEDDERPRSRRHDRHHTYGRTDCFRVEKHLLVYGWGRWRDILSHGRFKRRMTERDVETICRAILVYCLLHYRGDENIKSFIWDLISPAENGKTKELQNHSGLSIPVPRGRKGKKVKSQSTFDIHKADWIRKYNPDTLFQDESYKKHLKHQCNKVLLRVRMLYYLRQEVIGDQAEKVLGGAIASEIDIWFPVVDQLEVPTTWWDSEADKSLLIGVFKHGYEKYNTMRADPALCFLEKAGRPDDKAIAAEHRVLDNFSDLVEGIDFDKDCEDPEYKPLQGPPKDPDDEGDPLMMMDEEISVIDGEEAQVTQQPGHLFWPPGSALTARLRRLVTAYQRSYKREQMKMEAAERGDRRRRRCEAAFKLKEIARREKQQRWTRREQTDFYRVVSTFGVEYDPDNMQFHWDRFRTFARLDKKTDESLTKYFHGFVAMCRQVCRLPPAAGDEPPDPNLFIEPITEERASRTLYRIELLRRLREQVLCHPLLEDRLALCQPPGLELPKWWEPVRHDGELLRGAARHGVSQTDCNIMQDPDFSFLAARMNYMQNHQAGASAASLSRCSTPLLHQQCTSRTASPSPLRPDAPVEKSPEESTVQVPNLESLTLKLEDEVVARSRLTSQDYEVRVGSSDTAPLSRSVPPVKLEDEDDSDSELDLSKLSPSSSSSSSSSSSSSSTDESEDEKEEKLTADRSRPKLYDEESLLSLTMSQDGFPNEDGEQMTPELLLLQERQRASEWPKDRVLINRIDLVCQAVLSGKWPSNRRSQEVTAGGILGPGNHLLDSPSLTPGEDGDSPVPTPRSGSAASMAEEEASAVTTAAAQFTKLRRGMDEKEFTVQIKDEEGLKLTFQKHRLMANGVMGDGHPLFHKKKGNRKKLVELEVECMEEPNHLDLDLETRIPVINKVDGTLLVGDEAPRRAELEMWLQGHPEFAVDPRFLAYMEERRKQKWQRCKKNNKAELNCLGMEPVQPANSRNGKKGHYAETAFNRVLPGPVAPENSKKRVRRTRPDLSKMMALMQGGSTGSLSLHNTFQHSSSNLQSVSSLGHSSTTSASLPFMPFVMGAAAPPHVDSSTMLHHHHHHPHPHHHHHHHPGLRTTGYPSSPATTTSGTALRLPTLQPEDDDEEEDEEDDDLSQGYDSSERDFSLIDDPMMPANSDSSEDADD
# UniProt Q3TQI7: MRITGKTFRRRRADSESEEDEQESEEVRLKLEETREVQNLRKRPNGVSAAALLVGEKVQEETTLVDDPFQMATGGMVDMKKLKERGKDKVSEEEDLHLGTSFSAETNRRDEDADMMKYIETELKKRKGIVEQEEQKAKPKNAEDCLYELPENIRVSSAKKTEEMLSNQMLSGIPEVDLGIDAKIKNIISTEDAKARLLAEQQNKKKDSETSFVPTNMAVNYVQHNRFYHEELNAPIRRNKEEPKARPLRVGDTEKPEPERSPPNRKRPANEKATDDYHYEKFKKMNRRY
# UniProt Q3T9X0: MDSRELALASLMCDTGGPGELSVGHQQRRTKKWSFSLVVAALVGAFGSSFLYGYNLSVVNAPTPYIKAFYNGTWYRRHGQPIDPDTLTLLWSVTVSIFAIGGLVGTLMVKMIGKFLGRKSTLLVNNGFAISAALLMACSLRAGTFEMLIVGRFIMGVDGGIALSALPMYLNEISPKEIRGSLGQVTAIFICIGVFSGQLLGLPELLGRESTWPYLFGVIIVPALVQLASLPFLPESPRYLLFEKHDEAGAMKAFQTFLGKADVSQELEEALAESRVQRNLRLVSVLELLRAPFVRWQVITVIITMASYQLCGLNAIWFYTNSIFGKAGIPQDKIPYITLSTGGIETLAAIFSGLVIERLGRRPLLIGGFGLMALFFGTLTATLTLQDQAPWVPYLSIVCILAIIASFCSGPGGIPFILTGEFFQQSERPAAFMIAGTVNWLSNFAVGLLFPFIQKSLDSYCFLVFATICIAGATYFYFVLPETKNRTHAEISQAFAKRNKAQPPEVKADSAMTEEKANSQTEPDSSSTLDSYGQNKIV
# UniProt Q02788: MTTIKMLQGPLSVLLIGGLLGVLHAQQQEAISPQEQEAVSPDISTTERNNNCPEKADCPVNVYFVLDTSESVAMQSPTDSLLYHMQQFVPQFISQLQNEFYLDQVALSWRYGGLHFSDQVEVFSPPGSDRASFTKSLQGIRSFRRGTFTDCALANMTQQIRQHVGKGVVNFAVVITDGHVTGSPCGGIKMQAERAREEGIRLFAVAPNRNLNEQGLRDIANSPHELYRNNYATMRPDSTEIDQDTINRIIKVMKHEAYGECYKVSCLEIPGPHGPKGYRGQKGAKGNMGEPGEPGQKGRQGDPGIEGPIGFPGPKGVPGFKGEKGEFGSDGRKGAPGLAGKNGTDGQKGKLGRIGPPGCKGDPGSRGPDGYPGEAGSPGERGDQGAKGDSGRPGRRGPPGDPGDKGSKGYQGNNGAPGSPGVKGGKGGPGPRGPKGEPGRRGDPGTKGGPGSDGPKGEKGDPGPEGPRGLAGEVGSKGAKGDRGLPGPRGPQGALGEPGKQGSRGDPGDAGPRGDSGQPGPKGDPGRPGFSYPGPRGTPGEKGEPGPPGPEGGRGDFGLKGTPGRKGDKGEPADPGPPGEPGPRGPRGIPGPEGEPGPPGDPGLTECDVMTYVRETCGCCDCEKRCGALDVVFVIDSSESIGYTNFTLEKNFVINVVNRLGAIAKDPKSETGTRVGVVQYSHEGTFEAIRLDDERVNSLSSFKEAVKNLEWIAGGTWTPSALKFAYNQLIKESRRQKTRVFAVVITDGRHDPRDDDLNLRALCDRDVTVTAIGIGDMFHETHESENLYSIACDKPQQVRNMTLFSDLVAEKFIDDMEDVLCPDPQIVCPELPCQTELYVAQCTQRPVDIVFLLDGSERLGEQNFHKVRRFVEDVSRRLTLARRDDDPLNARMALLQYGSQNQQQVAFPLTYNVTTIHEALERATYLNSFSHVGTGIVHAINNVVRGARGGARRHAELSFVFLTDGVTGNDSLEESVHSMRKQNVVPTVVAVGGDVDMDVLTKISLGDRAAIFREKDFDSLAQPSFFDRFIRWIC
# UniProt Q03265: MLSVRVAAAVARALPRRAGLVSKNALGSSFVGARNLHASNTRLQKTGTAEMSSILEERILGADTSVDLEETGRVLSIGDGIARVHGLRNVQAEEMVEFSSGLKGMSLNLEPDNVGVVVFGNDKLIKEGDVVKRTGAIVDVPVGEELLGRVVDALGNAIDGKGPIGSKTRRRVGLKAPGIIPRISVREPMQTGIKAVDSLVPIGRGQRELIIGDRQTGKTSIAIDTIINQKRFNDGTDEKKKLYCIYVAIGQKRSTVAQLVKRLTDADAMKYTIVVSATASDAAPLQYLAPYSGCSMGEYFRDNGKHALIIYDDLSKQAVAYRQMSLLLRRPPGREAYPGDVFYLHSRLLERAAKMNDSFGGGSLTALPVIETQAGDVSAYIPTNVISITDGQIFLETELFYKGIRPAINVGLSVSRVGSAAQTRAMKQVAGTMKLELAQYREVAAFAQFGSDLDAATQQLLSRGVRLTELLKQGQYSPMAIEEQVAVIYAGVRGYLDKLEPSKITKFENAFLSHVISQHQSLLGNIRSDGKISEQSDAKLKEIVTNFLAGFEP
# UniProt Q0VGB7: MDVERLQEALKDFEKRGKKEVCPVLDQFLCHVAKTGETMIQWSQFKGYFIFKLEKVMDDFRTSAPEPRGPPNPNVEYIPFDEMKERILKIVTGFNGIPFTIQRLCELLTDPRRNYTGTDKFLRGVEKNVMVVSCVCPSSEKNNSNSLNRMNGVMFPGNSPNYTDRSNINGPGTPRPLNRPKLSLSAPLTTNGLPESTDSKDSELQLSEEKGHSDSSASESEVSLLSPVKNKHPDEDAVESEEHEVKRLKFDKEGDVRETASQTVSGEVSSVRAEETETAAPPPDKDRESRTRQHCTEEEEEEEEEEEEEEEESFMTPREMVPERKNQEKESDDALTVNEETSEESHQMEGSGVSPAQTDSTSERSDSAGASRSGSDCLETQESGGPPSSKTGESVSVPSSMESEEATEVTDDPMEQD
# UniProt Q3TSG4: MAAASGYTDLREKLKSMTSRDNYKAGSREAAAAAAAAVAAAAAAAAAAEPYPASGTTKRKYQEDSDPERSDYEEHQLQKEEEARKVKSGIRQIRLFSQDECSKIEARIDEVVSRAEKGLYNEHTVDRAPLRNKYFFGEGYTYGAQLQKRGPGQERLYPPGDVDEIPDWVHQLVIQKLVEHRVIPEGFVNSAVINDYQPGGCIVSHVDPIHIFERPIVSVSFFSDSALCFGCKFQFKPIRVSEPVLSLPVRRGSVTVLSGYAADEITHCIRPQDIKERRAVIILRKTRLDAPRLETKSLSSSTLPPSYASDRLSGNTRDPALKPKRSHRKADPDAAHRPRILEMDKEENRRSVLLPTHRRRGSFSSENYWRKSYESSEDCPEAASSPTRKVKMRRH
# UniProt Q07231: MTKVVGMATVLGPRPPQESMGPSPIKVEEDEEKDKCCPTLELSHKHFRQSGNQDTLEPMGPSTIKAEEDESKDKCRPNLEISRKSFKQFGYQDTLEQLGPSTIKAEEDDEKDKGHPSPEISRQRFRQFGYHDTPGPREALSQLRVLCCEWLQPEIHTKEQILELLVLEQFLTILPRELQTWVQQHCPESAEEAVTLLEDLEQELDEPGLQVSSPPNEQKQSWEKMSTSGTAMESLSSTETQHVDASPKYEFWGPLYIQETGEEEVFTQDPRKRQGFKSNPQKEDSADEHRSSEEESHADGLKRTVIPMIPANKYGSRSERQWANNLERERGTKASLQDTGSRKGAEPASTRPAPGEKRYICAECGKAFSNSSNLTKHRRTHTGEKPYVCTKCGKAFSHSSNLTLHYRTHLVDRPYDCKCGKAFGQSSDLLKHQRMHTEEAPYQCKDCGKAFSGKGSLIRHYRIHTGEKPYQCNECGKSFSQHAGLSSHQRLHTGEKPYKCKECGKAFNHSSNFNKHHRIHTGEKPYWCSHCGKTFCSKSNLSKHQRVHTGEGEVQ
# UniProt Q3TFQ1: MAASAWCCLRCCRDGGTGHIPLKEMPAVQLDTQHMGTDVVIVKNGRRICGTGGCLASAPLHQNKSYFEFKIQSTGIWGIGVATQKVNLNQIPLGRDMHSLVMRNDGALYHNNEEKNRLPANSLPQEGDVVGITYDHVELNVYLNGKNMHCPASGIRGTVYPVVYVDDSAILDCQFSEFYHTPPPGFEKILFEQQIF
# The list shows a part of the results. Most entries show no effect beyond the scatter of the controls.
# Compound: CN[C@@H]1C[C@H]2O[C@@](C)([C@@H]1OC)n1c3ccccc3c3c4c(c5c6ccccc6n2c5c31)C(=O)NC4 [staurosporine]
# Experiment: log2 fold change of tryptic peptide abundance, ligand vs vehicle (limited proteolysis) (log2 ratio); higher = more trypsin-susceptible (destabilized)
# Settings: ligand concentration: 20 uM; sample: mouse liver crude lysate; replicate design: treated separately
row,Target,log2 fold change
1,"UniProt Q2VPU4 (peptide sequence: TMEYITK, peptide start residue: 760)",-0.543
2,"UniProt Q03160 (peptide sequence: HVCEMLVQR, peptide start residue: 125)",0.206
3,"UniProt Q09XV5 (peptide sequence: EDEESSIQKR, peptide start residue: 567)",0.976
4,"UniProt Q3TQI7 (peptide sequence: LLAEQQNK, peptide start residue: 197)",-0.178
5,"UniProt Q3T9M1 (peptide sequence: SPAVSPDVAR, peptide start residue: 210)",-0.0338
6,"UniProt Q3TXS7 (peptide sequence: QCVENADLPEGEKKPIDQR, peptide start residue: 111)",-0.508
7,"UniProt Q3T9X0 (peptide sequence: THAEISQAFAK, peptide start residue: 487)",-0.286
8,"UniProt Q3U269 (peptide sequence: VLMYCTGGIR, peptide start residue: 350)",-0.469
9,"UniProt Q3TBW2 (peptide sequence: VFPSQVLKPFLENSK, peptide start residue: 125)",0.341
10,"UniProt Q3TLH4 (peptide sequence: KEEQVVQVWSKK, peptide start residue: 1674)",-0.737
11,"UniProt Q02788 (peptide sequence: LFAVAPNR, peptide start residue: 202)",-0.122
12,"UniProt Q0P678 (peptide sequence: VQYTEAEPYHNYR, peptide start residue: 386)",-0.144
13,"UniProt Q3TIR1 (peptide sequence: MAPGYGDVR, peptide start residue: 299)",-0.219
14,"UniProt Q03141 (peptide sequence: SQTSTADSDLKEDGIPSR, peptide start residue: 436)",0.322
15,"UniProt Q3TMV7 (peptide sequence: ADYVGSALGPDWHGGLALK, peptide start residue: 225)",-0.372
16,"UniProt Q03265 (peptide sequence: SDGKISEQSDAKLK, peptide start residue: 528)",-0.132
17,"UniProt Q0VGB7 (peptide sequence: FDKEGDVR, peptide start residue: 250)",-0.204
18,"UniProt Q08369 (peptide sequence: ANPGRHPNLDMFDDFSEGR, peptide start residue: 196)",0.262
19,"UniProt Q3TSG4 (peptide sequence: ILEMDKEENRR, peptide start residue: 340)",-0.177
20,"UniProt Q05BC3 (peptide sequence: KPSASLPAPSGAR, peptide start residue: 106)",-0.188
21,"UniProt Q0VAV2 (peptide sequence: APLLHQEK, peptide start residue: 1388)",-0.733
22,"UniProt Q07231 (peptide sequence: IHTGEKPYQCNECGK, peptide start residue: 463)",0.341
23,"UniProt Q3TFQ1 (peptide sequence: DGGTGHIPLK, peptide start residue: 14)",0.553
24,"UniProt Q3TVC7 (peptide sequence: VNGEATVLTTHFSK, peptide start residue: 60)",0.351
25,"UniProt Q05D44 (peptide sequence: NVNTEKLR, peptide start residue: 619)",-1.05

# In another format: entries from further up.
row	Target	log2 fold change
1	UniProt Q2VPU4 (peptide sequence: TMEYITK, peptide start residue: 760)	-0.543
4	UniProt Q3TQI7 (peptide sequence: LLAEQQNK, peptide start residue: 197)	-0.178
14	UniProt Q03141 (peptide sequence: SQTSTADSDLKEDGIPSR, peptide start residue: 436)	0.322
15	UniProt Q3TMV7 (peptide sequence: ADYVGSALGPDWHGGLALK, peptide start residue: 225)	-0.372
16	UniProt Q03265 (peptide sequence: SDGKISEQSDAKLK, peptide start residue: 528)	-0.132
18	UniProt Q08369 (peptide sequence: ANPGRHPNLDMFDDFSEGR, peptide start residue: 196)	0.262
21	UniProt Q0VAV2 (peptide sequence: APLLHQEK, peptide start residue: 1388)	-0.733
